# Among all 580,000 compounds or so, about 6,100 (1.1%) were called active. The shares of active, inactive and inconclusive entries below differ from those in the screen. Calls follow the shape of the dose curve; as a rule, active = well fitted inhibition curve with a large enough effect; inconclusive = small, poorly fitted or top-dose-only effect, or another doubt; inactive = no such curve, though single readings can be large or run the other way. Potencies of inconclusive entries are doubtful fits and often do not repeat.
# Chains of the proteins cited; added tags and fusions are not shown. Lines headed by an entry give the natural chain unless they say otherwise; changes in a name come on top.
# UniProt P18054: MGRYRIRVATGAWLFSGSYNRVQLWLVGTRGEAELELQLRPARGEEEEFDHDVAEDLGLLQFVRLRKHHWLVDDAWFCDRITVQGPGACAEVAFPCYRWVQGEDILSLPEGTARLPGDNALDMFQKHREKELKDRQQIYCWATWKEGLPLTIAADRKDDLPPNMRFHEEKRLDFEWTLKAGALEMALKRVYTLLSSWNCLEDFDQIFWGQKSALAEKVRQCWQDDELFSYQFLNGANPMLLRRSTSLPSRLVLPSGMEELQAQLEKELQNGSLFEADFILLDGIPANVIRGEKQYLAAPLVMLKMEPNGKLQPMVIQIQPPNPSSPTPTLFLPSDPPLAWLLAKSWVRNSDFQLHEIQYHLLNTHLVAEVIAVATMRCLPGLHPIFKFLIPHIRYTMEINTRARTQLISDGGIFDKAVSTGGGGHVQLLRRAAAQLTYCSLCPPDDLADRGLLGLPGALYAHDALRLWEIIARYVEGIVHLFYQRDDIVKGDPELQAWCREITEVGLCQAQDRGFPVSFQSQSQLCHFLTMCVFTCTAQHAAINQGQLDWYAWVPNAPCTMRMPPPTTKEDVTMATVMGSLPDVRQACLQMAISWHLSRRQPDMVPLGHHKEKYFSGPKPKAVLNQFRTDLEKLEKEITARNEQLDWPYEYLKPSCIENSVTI
# Biological target: Polyunsaturated fatty acid lipoxygenase ALOX12 (Homo sapiens) (UniProt P18054)
# Assay: Primary qHTS assay for inhibitors of human arachidonate 12S-lipoxygenase (ALOX12): Round 2
# Settings: purified 12hLO, xylenol orange hydroperoxide absorbance; activity change, negative = inhibition: at 108 µM (top of the series) unless noted
# Outline: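 Purified human 12hLO (150 nM final) in 25 mM Hepes, 0.01% Triton X-100, pH 7.0 was preincubated 15 min at room temperature with compound. Then 40 uM arachidonic acid was added, 30 min. Hydroperoxide was read by Fe-XO absorbance ratio 573/405 nm.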
# % is scaled to controls: 0 for no effect and ±100 for the full control effect; potency is read from the fitted curve at half-maximal effect.
Compound,Potency,"activity change, negative = inhibition"
COc1ccc(OCCN2CCC(C(=O)NC(c3ccsc3)c3ccccc3C)CC2)cc1 (stereo not given),"inconclusive: 3.55 µM [inhibitor, single point]",–
O=C(O)C1c2ccccc2C(=O)N(Cc2ccc(F)cc2)C1c1ccncc1 (stereo not given),"inconclusive: 100 µM [inhibitor, single point]",–
CCN1c2cc(C(=O)Nc3ccc4c(c3)OCCO4)ccc2C(=O)N2CCCCCC21 (stereo not given),inactive,–
O=S(=O)(Cc1noc(-c2ccc(Cl)cc2)n1)Cc1ccco1,"inconclusive: 100 µM [inhibitor, single point]",–
CN(Cc1ccccc1)Cc1nc2c(c(=O)n(C)c(=O)n2C)n1CC(N)=O,inactive,–
Cn1cnc(S(=O)(=O)N2CCN(c3ccc(F)cc3)CC2)c1,"inconclusive: 89.1 µM [inhibitor, partial curve, poor fit]",–
CCOC(=O)C1=C(C)NC(C)=C(C(=O)OCC)C1c1ccccn1,"inconclusive: 112 µM [inhibitor, single point]",–
COc1cc(/C=C2\SC(=O)N(CC(=O)Nc3ccccc3F)C2=O)cc(Cl)c1O,inactive,–
CN1CCN(c2cc(-c3ccoc3)ncn2)CC1,active: 11.2 µM,–
CCN(C(=O)CSc1ncccn1)c1cccc2ccccc12,–,inconclusive: -34.9% [inhibitor]
COc1ccc(C(=O)/C=C/c2ccccc2C(F)(F)F)cc1,inactive,–
CCCCOC(=O)C1=C(C)NC(=O)NC1c1cc2c(cc1Br)OCO2 (stereo not given),inactive,–
CCOC(=O)C(=O)C1=C(N2CCOCC2)/C(=C\c2ccc(F)cc2)CC1,"inconclusive: 50.1 µM [inhibitor, partial curve, poor fit]",–
Cc1ccc(C(=O)OC/C(O)=C(\C#N)c2nc3ccccc3[nH]2)cc1S(=O)(=O)N1CCOCC1,inactive,–
CCC(C)N(C(=O)COC(=O)c1ccccc1SCC(=O)N1CCCC1)C1CCS(=O)(=O)C1 (stereo not given),"inconclusive: 1 µM [inhibitor, full curve]",–
O=C1CC(N2CCN(c3ccccn3)CC2)C(=O)N1c1ccc(Cl)cc1 (stereo not given),inactive,–
O=C(NC1CC1)[C@@H]1CN(Cc2ccc(Cl)cc2F)C[C@H]1CO,active: 44.7 µM,–
Cc1ccc2ncnc(Oc3ncccc3NC(=O)C(C)(C)C)c2c1,"inconclusive: 112 µM [inhibitor, single point]",–
CCNc1ncc2nc(-c3cccs3)c(=O)n(C)c2n1,"inconclusive: 50.1 µM [inhibitor, single point]",–
O=C(Cc1ccc(Cl)cc1)N1CCN(c2ccccc2O)CC1,active: 31.6 µM,–
CC1CCN(c2ccc(NC(=O)c3cccc(Cl)c3)cc2C(=O)O)CC1,"inconclusive: 112 µM [inhibitor, single point]",–
Cc1ccc(-c2cc(C(=O)NC(C)c3ccccc3)c3ccccc3n2)cc1C (stereo not given),"inconclusive: 79.4 µM [inhibitor, partial curve, poor fit]",–
O=C(OCC(=O)N1CCCCC1)c1cccc(NS(=O)(=O)c2ccccc2)c1,inactive,–
Cc1c(C)n(CCN(C)C)c2ncnc(NCc3ccccc3)c12,inactive,–

# 3 of the compounds above, bar-delimited.
Compound | Potency | activity change, negative = inhibition
Cn1cnc(S(=O)(=O)N2CCN(c3ccc(F)cc3)CC2)c1 | inconclusive: 89.1 µM [inhibitor, partial curve, poor fit] | –
CCOC(=O)C1=C(C)NC(C)=C(C(=O)OCC)C1c1ccccn1 | inconclusive: 112 µM [inhibitor, single point] | –
COc1cc(/C=C2\SC(=O)N(CC(=O)Nc3ccccc3F)C2=O)cc(Cl)c1O | inactive | –

# Continuation.

Compound,Potency,"activity change, negative = inhibition"
CCCS(=O)(=O)c1ncc(Cl)c(C(=O)N2CCN(c3ccc(OC)cc3)CC2)n1,"inconclusive: 2.24 µM [inhibitor, full curve, poor fit]",–
Cc1cccc(CSCC(=O)Oc2ccc(-c3ccc(I)cc3)cc2)c1,"inconclusive: 35.5 µM [inhibitor, partial curve, poor fit]",–
Cc1ccc(OC(=O)CCC(=O)Nc2ccc(C(N)=O)cc2)cc1,"inconclusive: 5.62 µM [inhibitor, partial curve, poor fit]",–
COC1CCN(CC(=O)Nc2cccc(C(=O)Nc3cccc(C(F)(F)F)c3)c2)CC1,"inconclusive: 70.8 µM [inhibitor, partial curve, poor fit]",–
O=C(c1ccc(OC(F)(F)F)cc1)N1CCC(c2n[nH]c(=O)n2-c2ccccc2)CC1,"inconclusive: 56.2 µM [inhibitor, partial curve]",–
O=C(NCc1ccccn1)C1CCN(Cc2cnn(-c3ccccc3)c2-n2cccc2)CC1,inactive,–
O=C(c1ccccc1)N1CCN(C(=O)c2ccc([N+](=O)[O-])cc2)CC1,inactive,–
CCOc1ccc(Cl)cc1CNCCCSc1ncccn1,"inconclusive: 1.58 µM [inhibitor, single point]",–
Cn1cccc1/C=C1\SC(=S)N(Nc2ccccc2)C1=O,"inconclusive: 1.26 µM [inhibitor, full curve, poor fit]",–
CCN1CCc2nc3sc(C(=O)Nc4cccnc4Cl)c(N)c3cc2C1,inactive,–
COCc1cn(C[C@H]2C[C@@H](NCc3cccnc3)[C@H](O)[C@@H]2O)nn1,active: 22.4 µM,–
CCc1ccc(N2C(=O)CN(Cc3ccccc3)C2=S)cc1,"inconclusive: 89.1 µM [inhibitor, partial curve, poor fit]",–
CC1CCC(N2CCN(c3ncccn3)CC2)CC1 (stereo not given),"inconclusive: 141 µM [inhibitor, partial curve, poor fit]",–
CNC(C)c1ccc(Oc2ccccc2)cc1 (stereo not given),"inconclusive: 7.94 µM [inhibitor, full curve, poor fit]",–
CCOC(=O)c1c(NC(=O)c2cccs2)sc2c1CC(C)(C)OC2,"inconclusive: 100 µM [inhibitor, partial curve, poor fit]",–
Cc1ccc(F)cc1NC(=O)NCCc1coc(-c2ccccc2)n1,inactive,–
O=S(=O)(Nn1cnnc1)c1ccc2ccccc2c1,"inconclusive: 5.01 µM [inhibitor, full curve, poor fit]",–
COc1ccc(C2=NO[C@@H]3[C@@H]4C[C@@H]([C@H]5C(=O)N(C)C(=O)[C@@H]45)[C@H]23)c(OC)c1,"inconclusive: 89.1 µM [inhibitor, partial curve, poor fit]",–
COc1ccc(C2CC(=O)Nc3c2c(C)nn3-c2ccc(Cl)nn2)cc1O (stereo not given),"inconclusive: 31.6 µM [inhibitor, partial curve, poor fit]",–
CC(=O)/C=C1/C(=O)Nc2ccccc21,"inconclusive: 56.2 µM [inhibitor, partial curve, poor fit]",–
CCCC(=O)Nc1nnc(SCC(=O)N2CCCCC2)s1,"inconclusive: 44.7 µM [inhibitor, partial curve, poor fit]",–
COc1ccc(NC(=O)c2sc3nc(N4CCCC4)c4c(c3c2N)CC(C)(C)OC4)cc1,"inconclusive: 100 µM [inhibitor, single point]",–
COc1ccc(C(C)=O)cc1CSCc1ccc(C#N)cc1,inactive,–
N#CC1=C(N)N(c2ccccc2)C(c2ccco2)C1(C#N)C#N (stereo not given),inactive,–

Compound,Potency,"activity change, negative = inhibition"
O/N=C/c1ccc(OCc2ccc(Cl)c(Cl)c2)cc1,"inconclusive: 50.1 µM [inhibitor, single point]",–
O=C1CCN(Cc2cccc(F)c2)CCCC(CO)CCN1 (stereo not given),inactive,–
COc1ccc(OC)c(NC(=O)CCNS(=O)(=O)c2ccc3[nH]c(=O)oc3c2)c1,inactive,–
O=C(N/N=C/c1ccccc1C(=O)O)c1ccc(COc2cccc3cccnc23)cc1,inactive,–
CC1=CSC2=NC(=O)/C(=C\c3cccn3-c3ccccc3)C(=N)N12,inactive,–
CCOc1cccc(CNCC2CCCO2)c1 (stereo not given),"inconclusive: 39.8 µM [inhibitor, single point]",–
COc1ccc(C2=NN(c3nc4ccccc4s3)C(=O)C2)cc1,"inconclusive: 44.7 µM [inhibitor, partial curve, poor fit]",–
Cc1nc2c(s1)CCCC2NC(=O)c1cc(-c2ccc(F)cc2)n[nH]1 (stereo not given),inactive,–
Fc1ccccc1CNC(=S)NCc1ccccc1,"inconclusive: 28.2 µM [inhibitor, partial curve]",–
Cc1ccc(Cn2c(CNS(=O)(=O)c3c(C)cc(C)cc3C)nc3cccnc32)cc1,"inconclusive: 56.2 µM [inhibitor, partial curve, poor fit]",–
O=C(CNS(=O)(=O)c1cccs1)NCCc1ccc(Cl)cc1,"inconclusive: 63.1 µM [inhibitor, partial curve, poor fit]",–
CC(C)(C)S(=O)(=O)N1Cc2cc(CO)ccc2[C@H]1CCO,inactive,–
O=C(Nc1ccc(OC(F)(F)F)cc1)c1nc2ccccc2nc1N1CCOCC1,inactive,–
Cc1cc(=O)[nH]c(/N=C(\N)Nc2cccc3ccccc23)n1,"inconclusive: 31.6 µM [inhibitor, partial curve, poor fit]",–
O=C1CCCC2=C1C(c1ccc(C(=O)O)cc1)c1c([nH]n(-c3ccccc3)c1=O)N2 (stereo not given),–,inconclusive: -32.3% [inhibitor]
Cn1c(=O)c2c(nc(Oc3ccccc3)n2Cc2ccc(F)cc2)n(C)c1=O,inactive,–
COc1ccc(NC(=O)C2CCCN(CCCc3ccccc3)C2)cc1OCC(C)C (stereo not given),"inconclusive: 25.1 µM [inhibitor, partial curve, poor fit]",–
CCCCCCCCCCS(=O)(=O)N/N=C/c1c[nH]c2ccccc12,"inconclusive: 39.8 µM [inhibitor, partial curve, poor fit]",–
O=C(N[C@@H](Cc1cccnc1)C(=O)N1CCC[C@H]1C(=O)NCCc1ccccc1Cl)c1ccc(Cl)c(Cl)c1,inactive,–
Cc1cccc(OCC(=O)N2CCC(N3CCOCC3)CC2)c1,active: 1.58 µM,–
COc1cc(S(=O)(=O)NC2CC(C)(C)NC(C)(C)C2)c(OC)cc1Cl,"inconclusive: 35.5 µM [inhibitor, single point]",–
CC(=O)NCCNc1nc(NCC2CC2)nc2cc(-c3ccccc3)sc12,"inconclusive: 35.5 µM [inhibitor, partial curve, poor fit]",–

# Source: PubChem BioAssay AID1671190 (National Center for Advancing Translational Sciences (NCATS), 2021)
